These are yes or no findings as the source states them, for the method shown. Binding can be weak; no strength is given.

The values that follow come from US20200392228A1.

The chains are these.
B1: MAdCAM antibody Clone ID 31 of Table 6 (scFv) (scFv)
scFv: QVQLVQSGAEVKKPGASVKVSCKASGYTFTSYYMHWVRQAPGQGLEWMGIINPSGGSTSYAQKFQGRVTMTRDTSTSTVYMELSSLRSEDTAVYYCARDTGYSYGRYYYYGMDVWGQGTLVTVSSGGGGSGGGGSGGGGSGGGGSDIQMTQSPSSLSASVGDRVTITCRASQSIGRWLAWYQQKPGKAPKLLIYDASNLQSGVPSRFSGSGSGTDFTLTISSLQPEDFATYYCQQSYSIPITFGQGTKVEIK
B2: MAdCAM antibody Clone ID 36 of Table 6 (scFv) (scFv)
scFv: QVQLVQSGAEVKKPGASVKVSCKASGYTFTGHYMHWVRQAPGQGLEWMGIINPSGGSTSYAQKFQGRVTMTRDTSTSTVYMELSSLRSEDTAVYYCARDTGYSYGRYYYYGMDVWGQGTTVTVSSGGGGSGGGGSGGGGSGGGGSDIQMTQSPSSLSASVGDRVTITCRASQSIGRWLAWYQQKPGKAPKLLIYDASNLQSGVPSRFSGSGSGTDFTLTISSLQPEDFATYYCQQSYSIPITFGGGTKVEIK
B3: MAdCAM antibody Clone ID 30 of Table 6 (scFv) (scFv)
scFv: QVQLVQSGAEVKKPGASVKVSCKASGYTLTTWYMYWVRQAPGQGLEWMGWINPNRGATNYAQKFQGRVTMTRDTSTSTVYMELSSLRSEDTAVYYCAKGDLWGAMDVWGQGTLVTVSSGGGGSGGGGSGGGGSGGGGSDIQMTQSPSSLSASVGDRVTITCRASDNIGSWLAWYQQKPGKAPKLLIYAASSLQSGVPSRFSGSGSGTDFTLTISSLQPEDFATYYCQQGYSTPPTFGQGTKVEIK
B4: MAdCAM antibody Clone ID 33 of Table 6 (scFv) (scFv)
scFv: QVQLVQSGAEVKKPGASVKVSCKASGYTFTSYGISWVRQAPGQGLEWMGWMHPKSGDTGLTQKFQGRVTMTRDTSTSTVYMELSSLRSEDTAVYYCARDTPYYYYGMDVWGQGTTVTVSSGGGGSGGGGSGGGGSGGGGSDIQMTQSPSSLSASVGDRVTITCRASQSISSWLAWYQQKPGKAPKLLIYAASSLQSGVPSRFSGSGSGTDFTLTISSLQPEDFATYYCQQSYSVPITFGQGTKVEIK
B5: MAdCAM antibody Clone ID 29 of Table 6 (scFv) (scFv)
scFv: QVQLVQSGAEVKKPGASVKVSCKASGYTFTSYYMHWVRQAPGQGLEWMAWMNPNSGNTGYAQKFQGRVTMTRDTSTSTVYMELSSLRSEDTAVYYCARDYDFWSGSLGYWGQGTLVTVSSGGGGSGGGGSGGGGSGGGGSDIQMTQSPSSLSASVGDRVTITCRASQGISNYLAWYQQKPGKAPKLLIYAASSLQSGVPSRFSGSGSGTDFTLTISSLQPEDFATYYCQQSYSTPWTFGQGTKVEIK
B6: MAdCAM antibody Clone ID 35 of Table 6 (scFv) (scFv)
scFv: EVQLLESGGGLVQPGGSLRLSCAASGFSFSSYTMNWVRQAPGKGLEWVSFITSSSRTIYYADSVKGRFTISRDNSKNTLYLQMNSLRAEDTAVYYCARDRRGDYGDSWYFDLWGRGTLVTVSSGGGGSGGGGSGGGGSGGGGSEIVMTQSPATLSVSPGERATLSCRASQSVRNYLAWYQQKPGQAPRLLIYGASTRATGIPARFSGSGSGTEFTLTISSLQSEDFAVYYCQQYGSSPLTFGGGTKVEIK
B7: MAdCAM antibody Clone ID 38 of Table 6 (scFv) (scFv)
scFv: EVQLLESGGGLVQPGGSLRLSCAASGFTFGSYSMSWVRQAPGKGLEWVSAIGTGGGTYYADSVKGRFTISRDNSKNTLYLQMNSLRAEDTAVYYCAKGTPYYYYYGMDVWGQGTMVTVSSGGGGSGGGGSGGGGSGGGGSDIQMTQSPSSLSASVGDRVTITCRASQPLSNWLAWYQQKPGKAPKLLIYAASSLQSGVPSRFSGSGSGTDFTLTISSLQPEDFATYYCQQAISFPLTFGGGTKVEIK
B8: MAdCAM antibody Clone ID 60 of Table 6 (scFv) (scFv)
scFv: EVQLLESGGGLVQPGGSLRLSCAASGFTFDDYTMHWVRQAPGKGLEWVSDISGSGGSTYYADSVKGRFTISRDNSKNTLYLQMNSLRAEDTAVYYCAKDVVVAGTPLHFDYWGQGTLVTVSSGGGGSGGGGSGGGGSGGGGSDIQMTQSPSSLSASVGDRVTITCQASQDISNYLNWYQQKPGKAPKLLIYAASYLQSGVPSRFSGSGSGTDFTLTISSLQPEDFATYYCQQAHNYPITFGQGTRLEIK
B9: MAdCAM antibody Clone ID 17 of Table 7 (IgG) (antibody, V domains shown)
VH: QVQLVQSGAEVKKPGSSVKVSCKASGYTFTDYHIHWVRQAPGQGLEWMGGIVPRSGSTTYAQKFQGRVTITADESTSTAYMELSSLRSEDTAVYYCAKDESSGWYYFDYWGQGTLVTVSS
VL: DIVMTQSPLSLPVTPGEPASISCRSSQSLLHSNGYNYLDWYLQKPGQSPQLLIYSAYNRASGVPDRFSGSGSGTDFTLKISRVEAEDVGVYYCMQALQTPLTFGQGTKVEIK
B10: MAdCAM antibody Clone ID 5 of Table 6 (scFv) (scFv)
scFv: EVQLLESGGGLVQPGGSLRLSCAASGFTFSSYWMHWVRQAPGKGLEWVSSISPGGSNIDYADSVKGRFTISRDNSKNTLYLQMNSLRAEDTAVYYCAREVQLSHYDYWGQGTLVTVSSGGGGSGGGGSGGGGSGGGGSDIQMTQSPSSLSASVGDRVTITCRASQGISNSLAWYQQKPGKAPKLLIYGASSLQSGVPSRFSGSGSGTDFTLTISSLQPEDFATYYCQQANSFPFTFGQGTKVEIK
B11: MAdCAM antibody Clone ID 64 of Table 6 (scFv) (scFv)
scFv: EVQLLESGGGLVKPGGSLRLSCAASGFAFSSHWMHWVRQAPGKGLEWVAGTSGSGESRDYADFVKGRFTISRDDSKNTLYLQMNSLKTEDTAVYYCARETYYYYYMDVWGKGTTVTVSSGGGGSGGGGSGGGGSGGGGSDIQMTQSPSSLSASVGDRVTITCRASQGISNYLAWYQQKPGKAPKLLIYDAANLEGGVPSRFSGSGSGTDFTLTISSLQPEDFATYYCQQSDIFPPTFGQGTKVEIK
B12: MAdCAM antibody Clone ID 20 of Table 7 (IgG) (antibody, V domains shown)
VH: EVQLLESGGGLVQPGGSLRLSCAASGFTFSDSAMHWVRQAPGKGLEWVSAISGSGSTIYYADSVKGRFTISRDNSKNTLYLQMNSLRAEDTAVYYCVSDIAVAGHWYFDLWGRGTLVTVSS
VL: DIQMTQSPSSLSASVGDRVTITCRASQSISTFLNWYQQKPGKAPKLLIYAASRLEGGVPSRFSGSGSGTDFTLTISSLQPEDFATYYCQQANSFPLTFGPGTKVDIK
B13: MAdCAM antibody Clone ID 4 of Table 6 (scFv) (scFv)
scFv: QVQLVQSGAEVKKPGASVKVSCKASGGTFSSYAISWVRQAPGQGLEWMGSINPSGDTTSYAQKFQGRVTMTRDTSTSTVYMELSSLRSEDTAVYYCAKDKAQWLVGYFDYWGQGTLVTVSSGGGGSGGGGSGGGGSGGGGSDIQMTQSPSSLSASVGDRVTITCQASQDISNSLNWYQQKPGKAPKLLIYAASSLQSGVPSRFSGSGSGTDFTLTISSLQPEDFATYYCQQSYSSVITFGQGTKVEIK
B14: MAdCAM antibody Clone ID 65 of Table 6 (scFv) (scFv)
scFv: QVQLVQSGAEVKKPGASVKVSCKASGYTFTRHWIHWVRQAPGQGLEWMGWINVKTGGAGYAQKFQGRVTMTRDTSTSTVYMELSSLRSEDTAVYYCARESSGWYGTDVWGQGTTVTVSSGGGGSGGGGSGGGGSGGGGSDIQMTQSPSSLSASVGDRATITCRASQSISNYLAWYQQKPGKAPKLLIYAASSLQSGVPSRFSGSGSGTDFTLTISSLQPEDFATYYCQQSNSFPLTFGGGTKVEIK
B15: MAdCAM antibody Clone ID 4 of Table 7 (IgG) (antibody, V domains shown)
VH: QVQLVQSGAEVKKPGASVKVSCKASGGTFSSYAISWVRQAPGQGLEWMGSINPSGDTTSYAQKFQGRVTMTRDTSTSTVYMELSSLRSEDTAVYYCAKDKAQWLVGYFDYWGQGTLVTVSS
VL: DIQMTQSPSSLSASVGDRVTITCQASQDISNSLNWYQQKPGKAPKLLIYAASSLQSGVPSRFSGSGSGTDFTLTISSLQPEDFATYYCQQSYSSVITFGQGTKVEIK
B16: MAdCAM antibody Clone ID 8 of Table 7 (IgG) (antibody, V domains shown)
VH: QVQLVQSGAEVKKPGASVKVSCKASGYTFTGYHIHWVRQAPGQGLEWMGIINPSGGSTIYAQKFQGRVTMTRDTSTSTVYMELSSLRSEDTAVYYCAKDWSSWYLGPFDYWGQGTLVTVSS
VL: DIQMTQSPSSLSASVGDRVTITCRASQNISSSLNWYQQKPGKAPKLLIYAASSLQSGVPSRFSGSGSGTDFTLTISSLQPEDFATYYCQQSYTTPYTFGQGTKVEIK
B17: MAdCAM antibody Clone ID 11 of Table 7 (IgG) (antibody, V domains shown)
VH: EVQLLESGGGLVQPGGSLRLSCAASGFTFSDYYMNWVRQAPGKGLEWVSVIGESGGSTYYADSVKGRFTISRDNSKNTLYLQMNSLRAEDTAVYYCAADPVSRWPKHGGGDYWGQGTLVTVSS
VL: DIQMTQSPSSLSASVGDRVTITCRASQGISSSLAWYQQKPGKAPKLLIYAASTLQSGVPSRFSGSGSGTDFTLTISSLQPEDFATYYCQQSYSTPWTFGQGTKVEIK
B18: MAdCAM antibody Clone ID 5 of Table 7 (IgG) (antibody, V domains shown)
VH: EVQLLESGGGLVQPGGSLRLSCAASGFTFSSYWMHWVRQAPGKGLEWVSSISPGGSNIDYADSVKGRFTISRDNSKNTLYLQMNSLRAEDTAVYYCAREVQLSHYDYWGQGTLVTVSS
VL: DIQMTQSPSSLSASVGDRVTITCRASQGISNSLAWYQQKPGKAPKLLIYGASSLQSGVPSRFSGSGSGTDFTLTISSLQPEDFATYYCQQANSFPFTFGQGTKVEIK
B19: MAdCAM antibody Clone ID 66 of Table 6 (scFv) (scFv)
scFv: EVQLLESGGGLVQPGGSLRLSCAASGFTFSSYWMHWVRQAPGKGLEWVAAISYDGKYKDYEDSVKGRFTISRDNSKNTLYLQMNSLRAEDTAVYYCARENKQWLASFDYWGQGTLVTVSSGGGGSGGGGSGGGGSGGGGSDIQMTQSPSSLSASVGDRVTITCQASQDISNFVNWYQQKPGKAPKLLIYAANLRSGVPSRFSGSGSGTDFTLTISSLQPEDFATYYCQQANSFPVTFGPGTKVDIK
B20: MAdCAM antibody Clone ID 61 of Table 6 (scFv) (scFv)
scFv: EVQLLESGGGLVQPGGSLRLSCAASEFTFSNAWMSWVRQAPGKGLEWVASISSTSAYIDYADSVKGRFTISRDNSKNTLYLQMNSLRAEDTAVYYCAREVVGATTFDYWGQGTLVTVSSGGGGSGGGGSGGGGSGGGGSDIQMTQSPSSLSASVGDRVTITCRASQSISTWLAWYQQKPGKAPKLLIYAASSLQSGVPSRFSGSGSGTDFTLTISSLQPEDFATYYCQQANAFPPTFGQGTRLEIK

For one assay, the target named is Cyno MAdCAM protein (cyno). As to the kind of experiment: ELISA. On the technique in general: ELISA stands for enzyme-linked immunosorbent assay.
Take B1: the binding entry is on record as “binds”. As for B2, the binding result is reported as “binds”.

B3: the binding result was “binds”. For the molecule B4, the binding result is on record as “binds”. Consider B5, for which the binding entry is “binds”. Regarding B6, the binding result is “binds”. For B7, the binding result was “binds”.

The target of the next assay is Cyno MAdCAM protein (cyno). As to the kind of experiment: Octet.
On to B8, for which the binding result is reported as “binds”. Consider B9, for which the binding result is “binds”. Consider B10, for which the binding entry is reported as “binds”. B11: the binding result was “binds”.

As for B12, the binding result is reported as “binds”. In the case of B13, the binding result is on record as “binds”. The same measure, in the same setting: as for B14, the entry is “binds”. With B15, the binding entry is “binds”. Same read-out and setting: the result for B16 reads “binds”; that for B17, “binds”; that for B18, “binds”. Take B19: the binding result is “binds”.

For the molecule B20, the binding result is “binds”.
